This is an account of results in the supplement of paper PMC10735217.

The structures appear in SMILES notation. This is one part of the list. Single values are uncertain here, since repeats match poorly.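 The human kidney-derived cells carry a stably integrated construct of eight TEAD-binding elements driving luciferase, read by luminescence in a drug-repurposing library screen. A compound counts as a hit when its signal is more than five robust Z scores above the plate mean.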

The assay has as its system HEK293A TEAD-LUC reporter. Description: TEAD-luciferase reporter activity (YAP activation), robust Z score vs plate; higher = stronger YAP/TEAD activation. The following applies: 24 h.

Turning to `Cc1ccc(Cn2nc(C(=O)N[C@@H]3C(C)(C)[C@@H]4CC[C@@]3(C)C4)cc2-c2ccc(Cl)c(C)c2)cc1`, the TEAD-luciferase reporter activity by setting is: (compound concentration: 200 nM) inactive: 0.0698; (compound concentration: 2 uM) inactive: -0.583; (compound concentration: 10 uM) inactive: -0.093.
The like results for `O=C(/C=C/c1ccccc1)OCC1OC(O[C@@H]2OC=C[C@H]3[C@H](O)[C@@H]4O[C@]4(CO)[C@@H]23)C(O)C(O)C1O` (stereo partly drawn) [Picroside I] were, in that order, inactive: -1.09, inactive: -0.0263 and inactive: -1.51.
Take `NC(=O)c1cc(N2CC2)c([N+](=O)[O-])cc1[N+](=O)[O-]`: the TEAD-luciferase reporter activity was inactive: -0.702 (compound concentration: 200 nM) and inactive: 2.94 (compound concentration: 10 uM).
Turning to `NC(=O)c1cc(N2CC2)c([N+](=O)[O-])cc1[N+](=O)[O-]` [Tretazicar], where the note is “compound concentration: 2 uM”, the TEAD-luciferase reporter activity is inactive: -2.67.
Regarding `CCOC(=O)CN(CC(=O)Nc1ccc(Cl)cc1C(=O)c1ccccc1)CC(=O)OCC`, the TEAD-luciferase reporter activity is, setting by setting: (compound concentration: 200 nM) inactive: 0.259; (compound concentration: 2 uM) inactive: -0.358; (compound concentration: 10 uM) inactive: 1.44.
Taken in the same sequence, the figures for `CC(C)(C)CC(C)(C)c1ccc(O)cc1` were inactive: -0.501, inactive: -0.419 and inactive: 3.55.
Taken in the same sequence, the figures for `CC1(C)[C@H](C=C(Cl)Cl)[C@H]1C(=O)OCc1c(F)c(F)c(F)c(F)c1F` [Fenfluthrin] were inactive: 1.2, inactive: 1.21 and inactive: 0.386.
With `CCN1CCCC1CNC(=O)C(O)(c1ccccc1)c1ccccc1` (stereo not drawn), the TEAD-luciferase reporter activity (compound concentration: 200 nM) is inactive: -1.34, the TEAD-luciferase reporter activity (compound concentration: 2 uM) was inactive: -0.285 and the TEAD-luciferase reporter activity (compound concentration: 10 uM) was inactive: -0.265.
Consider `CN1C(=O)NC(=O)C(C)(C2=CCCCC2)C1=O` (stereo not drawn), for which the TEAD-luciferase reporter activity reads like this: (compound concentration: 200 nM) inactive: -0.104; (compound concentration: 2 uM) inactive: 1.11; (compound concentration: 10 uM) inactive: 1.55.
Turning to `C=CCN1C[C@H](C)N([C@@H](c2cccc(O)c2)c2cccc(C(=O)N(C)c3cccc(F)c3)c2)C[C@H]1C`, the TEAD-luciferase reporter activity reads like this: (compound concentration: 200 nM) inactive: -0.617; (compound concentration: 2 uM) inactive: -0.252; (compound concentration: 10 uM) inactive: 0.938.
`CS(=O)(=O)NCCN1C(=O)NCC12CCN1CCc3c(oc4ccccc34)C1C2` (stereo not drawn): the TEAD-luciferase reporter activity (compound concentration: 200 nM) is inactive: 0.112, the TEAD-luciferase reporter activity (compound concentration: 2 uM) was inactive: -1.31 and the TEAD-luciferase reporter activity (compound concentration: 10 uM) is inactive: -1.21.
On to `CN(CC1CCCCC1)C1CCc2ccccc2C1` (stereo not drawn), for which the TEAD-luciferase reporter activity (compound concentration: 200 nM) is inactive: -0.724 and the TEAD-luciferase reporter activity (compound concentration: 10 uM) was inactive: 1.98.
With `Cc1nc2cc(NC(=O)c3cc4ccncc4n3Cc3cccc(F)c3)ccc2n1C`, the TEAD-luciferase reporter activity was inactive: 0.797 (compound concentration: 200 nM), inactive: 1.06 (compound concentration: 2 uM) and inactive: 3.69 (compound concentration: 10 uM).
Turning to `CCC(O)(COC(N)=O)c1ccccc1` (stereo not drawn), the TEAD-luciferase reporter activity (compound concentration: 200 nM) is inactive: -0.498, the TEAD-luciferase reporter activity (compound concentration: 2 uM) is inactive: -0.571 and the TEAD-luciferase reporter activity (compound concentration: 10 uM) is inactive: -0.36.
Consider `CO[C@]12C[C@@H](COC(=O)c3cncc(Br)c3)CN(C)[C@@H]1Cc1cn(C)c3cccc2c13` [nicergoline SR, Ethypharm], for which the TEAD-luciferase reporter activity by setting is: (compound concentration: 200 nM) inactive: 2.39; (compound concentration: 10 uM) inactive: 0.704.
Consider `CO[C@]12C[C@@H](COC(=O)c3cncc(Br)c3)CN(C)[C@@H]1Cc1cn(C)c3cccc2c13` [nicergoline SR], for which the TEAD-luciferase reporter activity (compound concentration: 2 uM) is inactive: 0.506.
For the molecule `CN1C(=O)N(C)C2C1N(C)C(=O)N2C` (stereo not drawn) [Mebicar], the TEAD-luciferase reporter activity (compound concentration: 200 nM) was inactive: -1.67, the TEAD-luciferase reporter activity (compound concentration: 2 uM) is inactive: 0.187 and the TEAD-luciferase reporter activity (compound concentration: 10 uM) was inactive: -0.584.
In the case of `CCCc1cc2c(s1)CN[C@H]1CCc3cc(O)c(O)cc3[C@H]21`, the TEAD-luciferase reporter activity runs as follows: (compound concentration: 200 nM) inactive: 1.78; (compound concentration: 2 uM) inactive: 0.792; (compound concentration: 10 uM) inactive: 0.719.
As for `CCC(COC(=O)c1cc(OC)c(OC)c(OC)c1)(c1ccccc1)N(C)C` (stereo not drawn), the TEAD-luciferase reporter activity runs as follows: (compound concentration: 200 nM) inactive: 0.209; (compound concentration: 10 uM) inactive: 0.653.
Turning to `CCC(COC(=O)c1cc(OC)c(OC)c(OC)c1)(c1ccccc1)N(C)C` (stereo not drawn) [trimebutine, Ahn-Gook Pharmaceutical], under “compound concentration: 2 uM”, the TEAD-luciferase reporter activity is inactive: -1.36.
With `CCCN1CCC[C@@H](c2cccc(O)c2)C1` [(-)-3PPP, Maryland], the TEAD-luciferase reporter activity is, setting by setting: (compound concentration: 200 nM) inactive: -0.791; (compound concentration: 10 uM) inactive: -0.364.
Take `CCCN1CCC[C@@H](c2cccc(O)c2)C1`: the TEAD-luciferase reporter activity (compound concentration: 2 uM) was inactive: -1.38.
As to `C[C@]12O[C@H](C[C@]1(O)CO)n1c3ccccc3c3c4c(c5c6ccccc6n2c5c31)CNC4=O` [Lestaurtinib], the TEAD-luciferase reporter activity was inactive: 4.33 (compound concentration: 200 nM) and inactive: -1.62 (compound concentration: 10 uM).
With `C[C@]12O[C@H](C[C@]1(O)CO)n1c3ccccc3c3c4c(c5c6ccccc6n2c5c31)CNC4=O` [lestaurtinib], for the setting “compound concentration: 2 uM”, the TEAD-luciferase reporter activity is inactive: 0.972.
For `O=C1NC(=S)NC(=O)C12CC=CCC2`, the TEAD-luciferase reporter activity is inactive: -1.75 (compound concentration: 200 nM), inactive: 0.176 (compound concentration: 2 uM) and inactive: -0.0765 (compound concentration: 10 uM).
The like results for `CC(C)c1ccccc1OCC1=NCCN1` were, in that order, inactive: -1.26, inactive: 0.947 and inactive: -0.733.
The like results for `CN1C2CCC1CC(OC(c1ccccc1)c1ccc(Cl)cc1)C2` (stereo not drawn) were, in that order, inactive: 2.18, inactive: -0.769 and inactive: 3.47.
As to `O=P1(NCCCl)OCCCN1CCCl` (stereo not drawn) [ifosfamide], the TEAD-luciferase reporter activity is inactive: -0.485 (compound concentration: 200 nM) and inactive: 1.71 (compound concentration: 10 uM).
Take `Cc1c(N(C)C)ccc(Br)c1N=C1NCCN1`: the TEAD-luciferase reporter activity is inactive: -2.16 (compound concentration: 200 nM), inactive: 1.07 (compound concentration: 2 uM) and active: 6.69 (compound concentration: 10 uM).
Consider `COc1ccc(OC)c(C(O)C(C)N)c1` (stereo not drawn) [methoxamine gel], for which the TEAD-luciferase reporter activity (compound concentration: 2 uM) was inactive: -2.53.
Consider `COc1ccc(OC)c(C(O)C(C)N)c1` (stereo not drawn) [methoxamine gel, Norgine], for which the TEAD-luciferase reporter activity (compound concentration: 200 nM) is inactive: -0.38 and the TEAD-luciferase reporter activity (compound concentration: 10 uM) was inactive: -0.572.
